The values below come from paper PMC8660824.

By UniProt entry, the sequences of proteins in these tests, tags left out.
UniProt Q14980: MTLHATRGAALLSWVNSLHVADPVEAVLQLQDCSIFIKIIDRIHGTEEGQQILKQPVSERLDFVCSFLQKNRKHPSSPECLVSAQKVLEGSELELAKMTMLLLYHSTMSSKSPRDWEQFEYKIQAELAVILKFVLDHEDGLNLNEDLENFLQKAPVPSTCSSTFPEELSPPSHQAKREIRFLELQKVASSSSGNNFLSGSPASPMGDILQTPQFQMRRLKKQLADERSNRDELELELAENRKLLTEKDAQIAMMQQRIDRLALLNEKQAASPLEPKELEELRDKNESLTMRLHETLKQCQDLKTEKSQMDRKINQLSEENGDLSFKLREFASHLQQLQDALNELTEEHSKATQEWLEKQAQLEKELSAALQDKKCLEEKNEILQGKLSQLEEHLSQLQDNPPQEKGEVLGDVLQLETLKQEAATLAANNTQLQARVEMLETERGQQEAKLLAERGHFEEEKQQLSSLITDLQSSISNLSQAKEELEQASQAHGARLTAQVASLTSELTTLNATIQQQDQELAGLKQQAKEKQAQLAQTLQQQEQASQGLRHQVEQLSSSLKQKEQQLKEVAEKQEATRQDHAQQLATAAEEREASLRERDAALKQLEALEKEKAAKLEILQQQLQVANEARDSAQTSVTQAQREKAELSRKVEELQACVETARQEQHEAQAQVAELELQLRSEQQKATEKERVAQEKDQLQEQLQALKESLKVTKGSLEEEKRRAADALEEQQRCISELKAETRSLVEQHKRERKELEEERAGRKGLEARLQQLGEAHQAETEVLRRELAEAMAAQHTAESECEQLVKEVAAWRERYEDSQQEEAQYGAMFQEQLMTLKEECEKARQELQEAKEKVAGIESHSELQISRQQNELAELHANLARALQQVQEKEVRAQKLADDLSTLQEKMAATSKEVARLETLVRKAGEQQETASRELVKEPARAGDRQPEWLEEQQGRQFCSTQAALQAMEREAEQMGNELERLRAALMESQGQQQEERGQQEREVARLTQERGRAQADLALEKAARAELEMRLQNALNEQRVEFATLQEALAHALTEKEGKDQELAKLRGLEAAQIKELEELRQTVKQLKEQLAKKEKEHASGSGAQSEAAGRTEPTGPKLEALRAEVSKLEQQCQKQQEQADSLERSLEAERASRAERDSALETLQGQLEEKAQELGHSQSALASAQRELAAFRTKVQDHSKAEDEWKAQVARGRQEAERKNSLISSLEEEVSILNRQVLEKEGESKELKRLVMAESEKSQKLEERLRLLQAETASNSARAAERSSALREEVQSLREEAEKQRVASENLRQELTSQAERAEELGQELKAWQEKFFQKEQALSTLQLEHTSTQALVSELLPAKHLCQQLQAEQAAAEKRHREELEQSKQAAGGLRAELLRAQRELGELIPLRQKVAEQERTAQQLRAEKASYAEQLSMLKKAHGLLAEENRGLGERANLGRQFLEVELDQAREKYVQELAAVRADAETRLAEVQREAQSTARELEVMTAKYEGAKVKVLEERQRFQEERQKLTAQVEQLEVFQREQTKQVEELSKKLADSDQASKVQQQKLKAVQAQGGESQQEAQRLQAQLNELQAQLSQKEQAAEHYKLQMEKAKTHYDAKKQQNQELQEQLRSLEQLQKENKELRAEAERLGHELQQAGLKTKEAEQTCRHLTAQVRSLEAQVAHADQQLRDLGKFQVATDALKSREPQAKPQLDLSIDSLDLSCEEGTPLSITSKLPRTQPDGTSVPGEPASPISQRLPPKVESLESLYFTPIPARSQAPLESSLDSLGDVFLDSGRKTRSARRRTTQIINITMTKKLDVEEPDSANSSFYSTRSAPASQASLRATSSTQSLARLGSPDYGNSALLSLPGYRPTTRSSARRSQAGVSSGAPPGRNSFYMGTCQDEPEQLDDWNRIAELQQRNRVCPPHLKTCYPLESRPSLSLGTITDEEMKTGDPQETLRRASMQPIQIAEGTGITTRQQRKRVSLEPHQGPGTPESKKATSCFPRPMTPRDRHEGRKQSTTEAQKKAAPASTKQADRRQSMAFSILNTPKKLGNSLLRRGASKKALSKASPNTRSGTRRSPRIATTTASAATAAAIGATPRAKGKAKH
UniProt O00139: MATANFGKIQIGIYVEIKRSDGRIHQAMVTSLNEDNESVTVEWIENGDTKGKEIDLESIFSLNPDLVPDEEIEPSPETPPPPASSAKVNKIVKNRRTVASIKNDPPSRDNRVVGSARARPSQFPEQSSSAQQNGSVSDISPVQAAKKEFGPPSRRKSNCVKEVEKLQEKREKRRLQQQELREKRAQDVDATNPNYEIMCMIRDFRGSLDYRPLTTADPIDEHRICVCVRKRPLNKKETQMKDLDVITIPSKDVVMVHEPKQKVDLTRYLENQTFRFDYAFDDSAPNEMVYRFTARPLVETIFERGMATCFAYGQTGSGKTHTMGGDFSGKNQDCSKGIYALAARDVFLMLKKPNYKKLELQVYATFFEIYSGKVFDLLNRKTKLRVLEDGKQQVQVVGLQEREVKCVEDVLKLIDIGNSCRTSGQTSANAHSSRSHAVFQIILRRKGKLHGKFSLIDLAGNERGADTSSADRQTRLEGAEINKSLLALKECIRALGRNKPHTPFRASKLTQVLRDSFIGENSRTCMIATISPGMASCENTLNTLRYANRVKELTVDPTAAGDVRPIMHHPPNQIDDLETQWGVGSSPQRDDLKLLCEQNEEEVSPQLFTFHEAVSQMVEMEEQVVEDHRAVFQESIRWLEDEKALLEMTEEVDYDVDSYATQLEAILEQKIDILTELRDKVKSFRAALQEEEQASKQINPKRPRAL

Like-named read-outs stand apart in the source and are kept apart here. These are yes or no findings as the source states them, for the method shown. In cells and extracts the contact can be indirect. Some binding calls cover weakened binding; strength is not graded here.

Common to all, as to experiment: co-IP; mitotic (thymidine, then nocodazole) HEK293T cells transfected with GFP-tagged constructs; lysis buffer 20 mM Tris-HCl pH 8.0, 150 mM NaCl, 0.5% NP-40; GFP-Trap beads 1.5 h at 4 °C; western blot
(In general: Immunoblotting shows a protein as a band on a membrane.)

The target in experiment [1] is GFP-NuMA (Nuclear Mitotic Apparatus protein, full-length) (human) (UniProt Q14980).
Another experiment deals with GFP-Kif2A (UniProt O00139).
Experiment [2] deals with GFP-NuMA (Nuclear Mitotic Apparatus protein, full-length) (human) (UniProt Q14980). The source holds these as a separate data set.

In the case of Kif2A (from UniProt O00139 1-706), the binding entry in experiment [1] was “binds”. “NuMA, endogenous (from UniProt Q14980 1-2115)”: in the experiment with GFP-Kif2A, the binding result is reported as “binds”.

B1: KifC1 (protein, UniProt Q9BW19 1-673)
chain: MDPQRSPLLEVKGNIELKRPLIKAPSQLPLSGSRLKRRPDQMEDGLEPEKKRTRGLGATTKITTSHPRVPSLTTVPQTQGQTTAQKVSKKTGPRCSTAIATGLKNQKPVPAVPVQKSGTSGVPPMAGGKKPSKRPAWDLKGQLCDLNAELKRCRERTQTLDQENQQLQDQLRDAQQQVKALGTERTTLEGHLAKVQAQAEQGQQELKNLRACVLELEERLSTQEGLVQELQKKQVELQEERRGLMSQLEEKERRLQTSEAALSSSQAEVASLRQETVAQAALLTEREERLHGLEMERRRLHNQLQELKGNIRVFCRVRPVLPGEPTPPPGLLLFPSGPGGPSDPPTRLSLSRSDERRGTLSGAPAPPTRHDFSFDRVFPPGSGQDEVFEEIAMLVQSALDGYPVCIFAYGQTGSGKTFTMEGGPGGDPQLEGLIPRALRHLFSVAQELSGQGWTYSFVASYVEIYNETVRDLLATGTRKGQGGECEIRRAGPGSEELTVTNARYVPVSCEKEVDALLHLARQNRAVARTAQNERSSRSHSVFQLQISGEHSSRGLQCGAPLSLVDLAGSERLDPGLALGPGERERLRETQAINSSLSTLGLVIMALSNKESHVPYRNSKLTYLLQNSLGGSAKMLMFVNISPLEENVSESLNSLRFASKVNQCVIGTAQANRK
With B1, the binding result in experiment [2] is given as “binds”.
